Experimental data as given in PMC13486994.
Results are given in words; binding and its absence hold for the method and conditions named. Binding seen in cells or lysates may run through a third protein. Some entries that bind do so weakly or less than the wild type.

By UniProt entry, the sequences of proteins in these tests, tags left out.
UniProt Q9HCE7: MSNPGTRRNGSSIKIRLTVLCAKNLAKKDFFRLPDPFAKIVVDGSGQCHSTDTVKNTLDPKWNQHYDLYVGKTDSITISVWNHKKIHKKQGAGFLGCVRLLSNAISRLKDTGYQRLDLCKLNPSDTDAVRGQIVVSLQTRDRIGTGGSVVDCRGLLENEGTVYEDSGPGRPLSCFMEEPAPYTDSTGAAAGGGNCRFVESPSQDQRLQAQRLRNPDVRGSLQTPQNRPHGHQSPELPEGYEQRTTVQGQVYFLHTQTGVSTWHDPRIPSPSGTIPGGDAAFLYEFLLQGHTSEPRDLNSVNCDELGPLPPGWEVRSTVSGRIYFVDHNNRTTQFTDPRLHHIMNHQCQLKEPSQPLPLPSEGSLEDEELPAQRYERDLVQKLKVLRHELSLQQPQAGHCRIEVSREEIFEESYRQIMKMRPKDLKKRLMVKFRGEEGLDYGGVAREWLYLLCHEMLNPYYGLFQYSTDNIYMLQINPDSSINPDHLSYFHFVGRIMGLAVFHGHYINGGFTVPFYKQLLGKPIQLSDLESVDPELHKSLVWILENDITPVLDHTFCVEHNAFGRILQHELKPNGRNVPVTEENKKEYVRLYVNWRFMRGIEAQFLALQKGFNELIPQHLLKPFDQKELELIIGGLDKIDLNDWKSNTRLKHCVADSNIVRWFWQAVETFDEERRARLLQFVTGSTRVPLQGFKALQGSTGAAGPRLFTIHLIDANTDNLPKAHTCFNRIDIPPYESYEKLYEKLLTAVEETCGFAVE
UniProt Q9BXK1: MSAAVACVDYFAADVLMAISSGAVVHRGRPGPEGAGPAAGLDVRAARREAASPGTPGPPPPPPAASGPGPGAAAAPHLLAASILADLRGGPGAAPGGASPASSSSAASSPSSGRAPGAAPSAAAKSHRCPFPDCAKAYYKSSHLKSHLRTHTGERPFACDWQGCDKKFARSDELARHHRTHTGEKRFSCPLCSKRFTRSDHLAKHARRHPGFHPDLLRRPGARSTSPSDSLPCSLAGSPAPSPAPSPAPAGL

Experiments:
[1] = target: T1, ring finger protein 180 (RNF180) (human (in lysate of human GC cells)) (UniProt Q86T96); experiment: co-IP; co-immunoprecipitation from GC cell lysates; antibodies on protein A/G magnetic beads, 4 °C, 12 h; Western blot (Fig. S4C); bait and cell line not given
T1 sequence: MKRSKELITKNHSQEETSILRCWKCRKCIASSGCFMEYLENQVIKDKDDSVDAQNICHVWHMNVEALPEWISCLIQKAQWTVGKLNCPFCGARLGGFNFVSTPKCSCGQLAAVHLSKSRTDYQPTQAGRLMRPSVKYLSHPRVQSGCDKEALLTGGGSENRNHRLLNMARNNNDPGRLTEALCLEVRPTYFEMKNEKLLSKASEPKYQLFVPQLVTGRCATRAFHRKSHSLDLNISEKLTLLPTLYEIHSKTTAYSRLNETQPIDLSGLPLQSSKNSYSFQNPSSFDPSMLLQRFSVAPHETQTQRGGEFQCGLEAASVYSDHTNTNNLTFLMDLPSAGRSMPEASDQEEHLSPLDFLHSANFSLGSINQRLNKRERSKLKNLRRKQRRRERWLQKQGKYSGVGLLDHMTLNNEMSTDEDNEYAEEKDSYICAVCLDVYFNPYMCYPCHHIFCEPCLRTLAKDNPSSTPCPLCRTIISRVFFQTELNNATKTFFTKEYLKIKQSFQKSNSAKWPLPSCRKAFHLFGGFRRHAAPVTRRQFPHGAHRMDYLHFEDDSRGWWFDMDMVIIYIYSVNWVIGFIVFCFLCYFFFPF

[2] = target: SMAD-specific E3 ubiquitin protein ligase 1 (SMURF1) (human (in lysate of human GC cells)) (UniProt Q9HCE7); experiment: as above
[3] = target: T2, phospholipase C beta 1 (PLCB1) (human (endogenous in AGS and MKN-74)) (UniProt Q9NQ66); experiment: co-IP; reciprocal co-immunoprecipitation of endogenous proteins from whole-cell lysates of AGS and MKN-74 cells; antibodies on protein A/G magnetic beads, 4 °C, 12 h; Western blot
T2 sequence: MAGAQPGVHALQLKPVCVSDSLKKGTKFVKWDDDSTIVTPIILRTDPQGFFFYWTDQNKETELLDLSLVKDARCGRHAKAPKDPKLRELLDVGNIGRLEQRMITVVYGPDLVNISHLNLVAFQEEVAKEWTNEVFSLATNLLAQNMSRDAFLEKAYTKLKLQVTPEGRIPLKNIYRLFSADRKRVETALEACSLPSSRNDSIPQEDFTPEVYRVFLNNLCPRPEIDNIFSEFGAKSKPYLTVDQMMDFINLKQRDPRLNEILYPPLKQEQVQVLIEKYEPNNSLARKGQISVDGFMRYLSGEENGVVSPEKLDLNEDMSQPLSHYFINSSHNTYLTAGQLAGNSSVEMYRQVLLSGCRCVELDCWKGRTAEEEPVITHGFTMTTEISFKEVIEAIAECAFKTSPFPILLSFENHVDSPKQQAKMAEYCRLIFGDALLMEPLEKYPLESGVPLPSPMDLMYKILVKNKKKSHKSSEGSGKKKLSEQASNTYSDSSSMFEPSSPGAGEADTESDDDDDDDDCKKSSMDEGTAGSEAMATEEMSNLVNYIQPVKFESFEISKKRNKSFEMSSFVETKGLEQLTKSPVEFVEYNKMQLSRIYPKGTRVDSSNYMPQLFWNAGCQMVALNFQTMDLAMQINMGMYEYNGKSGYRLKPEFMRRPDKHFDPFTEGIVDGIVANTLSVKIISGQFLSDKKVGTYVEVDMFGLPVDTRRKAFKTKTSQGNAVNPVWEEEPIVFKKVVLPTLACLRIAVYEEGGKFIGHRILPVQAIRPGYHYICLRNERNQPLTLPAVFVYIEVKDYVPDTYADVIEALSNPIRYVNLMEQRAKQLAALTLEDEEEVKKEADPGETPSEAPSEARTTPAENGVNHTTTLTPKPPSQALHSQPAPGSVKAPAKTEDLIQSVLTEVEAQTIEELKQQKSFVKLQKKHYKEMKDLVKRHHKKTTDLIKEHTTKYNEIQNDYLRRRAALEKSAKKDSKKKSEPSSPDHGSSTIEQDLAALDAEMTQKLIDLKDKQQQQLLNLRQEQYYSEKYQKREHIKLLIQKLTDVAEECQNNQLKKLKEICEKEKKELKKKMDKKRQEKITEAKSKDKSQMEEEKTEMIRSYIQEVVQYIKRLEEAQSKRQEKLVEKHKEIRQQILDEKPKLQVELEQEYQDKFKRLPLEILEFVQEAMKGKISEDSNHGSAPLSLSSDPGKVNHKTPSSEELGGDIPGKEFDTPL

[4] = target: protein kinase C alpha (PRKCA) (human (endogenous in AGS and MKN-74)) (UniProt P17252); experiment: as above

## Kruppel-like factor 16 (KLF16) (from UniProt Q9BXK1 1-252)
[1]
  binding: binds
[2]
  binding: binds

## protein kinase C alpha (PRKCA) (from UniProt P17252 1-672)
[3]
  binding: binds

B1: phospholipase C beta 1 (PLCB1) (protein, UniProt Q9NQ66 1-1216)
chain: MAGAQPGVHALQLKPVCVSDSLKKGTKFVKWDDDSTIVTPIILRTDPQGFFFYWTDQNKETELLDLSLVKDARCGRHAKAPKDPKLRELLDVGNIGRLEQRMITVVYGPDLVNISHLNLVAFQEEVAKEWTNEVFSLATNLLAQNMSRDAFLEKAYTKLKLQVTPEGRIPLKNIYRLFSADRKRVETALEACSLPSSRNDSIPQEDFTPEVYRVFLNNLCPRPEIDNIFSEFGAKSKPYLTVDQMMDFINLKQRDPRLNEILYPPLKQEQVQVLIEKYEPNNSLARKGQISVDGFMRYLSGEENGVVSPEKLDLNEDMSQPLSHYFINSSHNTYLTAGQLAGNSSVEMYRQVLLSGCRCVELDCWKGRTAEEEPVITHGFTMTTEISFKEVIEAIAECAFKTSPFPILLSFENHVDSPKQQAKMAEYCRLIFGDALLMEPLEKYPLESGVPLPSPMDLMYKILVKNKKKSHKSSEGSGKKKLSEQASNTYSDSSSMFEPSSPGAGEADTESDDDDDDDDCKKSSMDEGTAGSEAMATEEMSNLVNYIQPVKFESFEISKKRNKSFEMSSFVETKGLEQLTKSPVEFVEYNKMQLSRIYPKGTRVDSSNYMPQLFWNAGCQMVALNFQTMDLAMQINMGMYEYNGKSGYRLKPEFMRRPDKHFDPFTEGIVDGIVANTLSVKIISGQFLSDKKVGTYVEVDMFGLPVDTRRKAFKTKTSQGNAVNPVWEEEPIVFKKVVLPTLACLRIAVYEEGGKFIGHRILPVQAIRPGYHYICLRNERNQPLTLPAVFVYIEVKDYVPDTYADVIEALSNPIRYVNLMEQRAKQLAALTLEDEEEVKKEADPGETPSEAPSEARTTPAENGVNHTTTLTPKPPSQALHSQPAPGSVKAPAKTEDLIQSVLTEVEAQTIEELKQQKSFVKLQKKHYKEMKDLVKRHHKKTTDLIKEHTTKYNEIQNDYLRRRAALEKSAKKDSKKKSEPSSPDHGSSTIEQDLAALDAEMTQKLIDLKDKQQQQLLNLRQEQYYSEKYQKREHIKLLIQKLTDVAEECQNNQLKKLKEICEKEKKELKKKMDKKRQEKITEAKSKDKSQMEEEKTEMIRSYIQEVVQYIKRLEEAQSKRQEKLVEKHKEIRQQILDEKPKLQVELEQEYQDKFKRLPLEILEFVQEAMKGKISEDSNHGSAPLSLSSDPGKVNHKTPSSEELGGDIPGKEFDTPL
[4]
  binding: binds
